The list shows a part of the results. These are further read-outs of the screen, such as a control signal, another cell line or another target. No call is given for them. The list favours compounds with an active or inconclusive main result. Words in brackets tell the shape of the fitted curve; partial curves, single points and poor fits give uncertain potencies.
Test: qHTS Assay for Lipid Storage Modulators in Drosophila S3 Cells;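 for cell number change: cells counted by Cell Tracker Red CMTPX staining in the red channel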
Conditions: BODIPY lipid droplet fluorescence, 18-24 h; for cell number change: measured here: cell count max response, cells fed with added oleic acid
Method in brief: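 Drosophila S3 cells got compounds at several concentrations plus oleic acid (400 uM solution). Laser-scanning cytometry with 488 nm excitation read lipid droplets at 500-530 nm and cells at 575-640 nm. Percent activity was relative to 20 uM Triacsin C.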

[1] = measured here: cell number channel AC50, cells fed with added oleic acid
[2] = measured here: lipid fluorescence (Fed channel) AC50, cells fed with added oleic acid

Structure (SMILES) | cell number change | AC50 [1] | AC50 [2]
COC(=O)CSc1nnc(NC(=O)/C=C\c2ccc3c(c2)OCO3)s1 | -83.3% | 29.1 µM [falling, single point] | 0.517 µM [rising, full curve, poor fit]
CCOC(=O)c1c(C(C)(C)C)oc2ccc(O)cc12 | -54.3% | 29.1 µM [falling, single point] | 29.1 µM [falling, single point]
CCCCCCCCNC(=O)c1cccnc1SCC(=O)Nc1ccccc1OC | 7.25% | – | 0.58 µM [rising, full curve, poor fit]
COc1cc(CC(=O)Nc2cccc(C(F)(F)F)c2)cc(OC)c1OC | 7.02% | 0.92 µM [rising, partial curve] | –
Cc1cnc(NC(=O)CC2OC(=O)c3ccccc32)s1 (centres undefined) | 6.5% | – | –
Cc1ccc(NC(=O)N(C2CCCCC2)C(C)c2cccnc2)cc1C (centres undefined) | -1.41% | – | –
O=C(Cc1cccs1)N(Cc1cccs1)C1(C(=O)NC2CCCC2)CCCCC1 | 46% | 20.6 µM [rising, single point] | –
Cn1ccsc1=NC(=O)c1ccc(=O)[nH]c1 | 26% | – | 0.291 µM [rising, full curve, poor fit]
COc1ccccc1CCNC(=O)C(=O)NCC1OCCN1S(=O)(=O)c1ccccc1 (centres undefined) | 17.3% | – | 0.291 µM [rising, partial curve, poor fit]
CC1(C)C2CC=C(/C=N/NC(=O)c3ccccc3O)C1C2 (centres undefined) | -39.5% | 0.0164 µM [falling, full curve] | 6.51 µM [falling, full curve]
CN(CC(=O)Nc1cccc(F)c1)C(=O)c1ccc2c(c1)NC(=O)CS2 | -3.05% | 2.91 µM [rising, single point] | 1.46 µM [rising, partial curve]
COc1ccc(N2CCN(C(=O)CSc3nnc4c(C)cc5ccccc5n34)CC2)cc1 | 80.9% | 3.66 µM [rising, full curve] | 0.116 µM [rising, full curve, poor fit]
COc1ccc(-c2cc3c(nn2)-c2ccccc2C3=O)cc1 | -22.8% | – | –
COc1ccc(NC(=O)CN2C(=O)c3ccccc3S2(=O)=O)cc1S(=O)(=O)N1CCOCC1 | -3.74% | – | 6.51 µM [falling, single point]
CC1(C)Cc2cccc(OCC(=O)Nc3nccs3)c2O1 | -12.5% | – | –
COc1ccc(N=C2NN=C(c3ccc4c(c3)OCCO4)CS2)cc1 | 8.42% | – | 1.64 µM [rising, partial curve, poor fit]
Cn1nccc1C(=O)N1CCN(c2ccccc2Cl)CC1 | 13.6% | – | –

Only cell number change, for some of the entries so far:

| Structure (SMILES) | cell number change |
| --- | --- |
| CC1(C)Cc2cccc(OCC(=O)Nc3nccs3)c2O1 | -12.5% |
| COc1ccc(N=C2NN=C(c3ccc4c(c3)OCCO4)CS2)cc1 | 8.42% |

Source: PubChem BioAssay AID2685 (National Center for Advancing Translational Sciences (NCATS), 2010)
